Results from article PMC5825103 (PLoS ONE, 2018).

What was measured:
[1] = system: uni-nephrectomised male Sprague-Dawley rats; assay: organ protection in uni-nephrectomised rats on high-salt diet and aldosterone infusion; format: in vivo, rat; conditions: for BW end: 4 weeks
Description: The study on uni-nephrectomised rats was carried out by PreClinOmics (Indianapolis, Indiana, USA) and the study protocol was approved under the provisions outlined in PreClinOmics IACUC ethical application proposal #2013–184. […] The rats were maintained on Purina 5001 standard rodent chow ad libitum during facility acclimation (7 days). Animals were housed 2 rats/cage with a standard 12 hour light cycle and were kept at 22 to 25°C. […] Following mini pump implantation, animals were monitored daily for any clinical signs (especially inflammation at the subcutaneous incision site) for 1 week. […] Drinking water was supplemented with 0.3% KCl to prevent hypokalemia. Standard diet (5001, Purina Teklad, USA) was admixed with 6% NaCl and including test substances (Teklad #9386, Purina Teklad, USA) for the remainder of the study. Animals were assigned to treatment groups (n = 8) based on body weight before pump implantation. […] The test substances were provided in powder form to Purina Teklad for pelleting in Teklad 9386 diet at 0.18, 0.54 or 1.8 g kg^-1 diet. […] Test diets were fed ad libitum for 4 weeks. Animals were placed in standard rodent metabolic cages, on 3 separate occasions, with food and water for collection of 24 hour urine samples at baseline and 2 and 4 weeks after pump implantation. Urine samples were collected at room temperature without additives. Urine volume was measured using a graduated cylinder. Urine creatinine (Beckman, OSR6178) was assayed from fresh sample. […] For details on time points, see Method section for the pharmacokinetic-pharmacodynamic analysis. Animals were anesthetized on day 30 using CO2 inhalation and terminated via induction of pneumothorax. Terminal blood samples were collected by cardiac puncture. […] Premier provided pathologists scoring of Hematoxylin and Eosin, and Masson’s Trichrome stained slides for renal fibrosis and glomerulonephritis. Each animal had two blocks processed, one for myocardium (not reported here) and one for kidney. All blocks were grossed, processed and had two slides cut from each block: one stained with Hematoxylin and Eosin and one stained with Masson’s Trichrome. For kidney sections, pathology involved glomerular lesions, interstitial inflammation and tubular lesions (collectively, “glomerulonephritis”). Fibrosis, both within glomeruli and within the interstitial space, was scored using the Masson’s Trichrome stain. […] All scoring was performed on blinded samples.

[2] = system: uni-nephrectomised db/db mice; assay: organ protection in db/db uni-nephrectomised mice; format: in vivo; conditions: for BG w22 / HbA1c w22 / p-crea end: after 4 weeks treatment; for BW w22: after 4 weeks, AZD9977 or eplerenone 100 mg kg^-1 d^-1 in food, enalapril 200 mg l^-1 in drinking water

## CNC(=O)C[C@H]1COc2cc(F)ccc2N1C(=O)c1ccc2c(c1)NC(=O)CO2 [AZD9977, (S)-2-(7-Fluoro-4-(3-oxo-3,4-dihydro-2H-benzo[b][1, 4]oxazine-6-carbonyl)-3,4-dihydro-2H-benzo[b][1, 4]oxazin-3-yl)-N-methylacetamide]
[1]; 10 mg kg-1 d-1 group
  BW start: 361 ± 8 g
[1]; 10 mg kg-1 d-1 in diet
  BW end: 505 ± 11 g
  WI end: 171 ± 14 mL/24h
  p-crea end: 3.4 ± 0.3 µg/mL
[1]; 30 mg kg-1 d-1 group
  BW start: 363 ± 5 g
[1]; 30 mg kg-1 d-1 in diet
  BW end: 514 ± 13 g
  WI end: 159 ± 8 mL/24h
  p-crea end: 3.4 ± 0.2 µg/mL
[1]; 100 mg kg-1 d-1 group
  BW start: 365 ± 8 g
[1]; 100 mg kg-1 d-1 in diet
  BW end: 516 ± 20 g
  WI end: 121 ± 10 mL/24h
  p-crea end: 2.9 ± 0.1 µg/mL
[2]
  BG w22: > 29.4 mM
  HbA1c w22: > 12%
  p-crea end: 5.8 ± 0.2 µg/mL
  BW w22: 41.4 ± 1.9 g

## CCOC(=O)[C@H](CCc1ccccc1)N[C@@H](C)C(=O)N1CCC[C@H]1C(=O)O [enalapril]
[2]
  BG w22: > 29.4 mM
  HbA1c w22: > 12%
  p-crea end: 5.0 ± 0.2 µg/mL
  BW w22: 39.3 ± 1.8 g

## COC(=O)[C@@H]1CC2=CC(=O)CC[C@]2(C)[C@@]23O[C@@H]2C[C@@]2(C)[C@@H](CC[C@@]24CCC(=O)O4)[C@H]13 [eplerenone]
[1]; 10 mg kg-1 d-1 group
  BW start: 361 ± 4 g
[1]; 10 mg kg-1 d-1 in diet
  BW end: 519 ± 14 g
  WI end: 144 ± 7 mL/24h
  p-crea end: 2.9 ± 0.1 µg/mL
[1]; 30 mg kg-1 d-1 group
  BW start: 361 ± 5 g
[1]; 30 mg kg-1 d-1 in diet
  BW end: 520 ± 15 g
  WI end: 129 ± 6 mL/24h
  p-crea end: 3.2 ± 0.2 µg/mL
[2]
  BG w22: > 29.4 mM
  HbA1c w22: > 12%
  p-crea end: 5.9 ± 0.2 µg/mL
  BW w22: 42.5 ± 1.8 g
